From US20150111306, “HEMOGLOBIN A1c-SPECIFIC APTAMER, HEMOGLOBIN-SPECIFIC APTAMER, AND APPLICATIONS THEREOF” (National Tsing Hua University, published 2015)

How the values were obtained:
[1] = tested on: Hemoglobin (Hb); test: SELEX; details: purified native protein; single-stranded DNA
[2] = tested on: Hemoglobin (Hb); test: pull-down; details: weaker band than HbA1c beads, stated not to bind Hb; chemiluminescence significantly reduced with anti-Hb detection antibody; purified native protein; label: 5' biotin (blood detection assay); single-stranded DNA
[3] = tested on: Hemoglobin A1c (HbA1c); test: SELEX; details: obtained from 7 positive/negative rounds and competitive analysis; PBS 0.01 M pH 7.4 wash; purified native protein; single-stranded DNA

For “ACAGCACCACAGACCAACAGCTACCATCTAACACTCGCGTCGTCTCCCTCACCTGGTGTTTGTCTTCCTGCC [Hb-specific aptamer SEQ ID NO: 8]”, the selection result [1] was “selected”.

“TGGCAGGAAGACAAACACATCGTCGCGGCCTTAGGAGGGGCGGACGGGGGGGGGCGTGGTCTGTGGTGCTGT [HbA1c-specific aptamer SEQ ID NO: 3]”: no binding [2].

For “ACAGCACCACAGACCACGCCCCCCCCCGTCCGCCCCTCCTAAGGCCGCGACGATGTGTTTGTCTTCCTGCCA [HbA1c-specific aptamer SEQ ID NO: 4]”, the selection result [3] was “selected”.

For part of these data: No signal at the amounts used counts as a negative. For part of these data: The exact form of at least one protein or probe is not confirmed.
